Results taken from PubChem BioAssay AID1259354 (Paczesny and Yang Labs, IUPUI and University of Michigan, 2018).
Hit rate of the full screen: of about 78,000 compounds, about 1,800 (2.3%) were called active. This list was built around the results that the source calls inconclusive (neither active nor inactive); the mix of calls is not that of the screen. No stated cut-off is given here; in the data, active means inhibition above about 30%; inconclusive means mostly about 10% to 28%; inactive means weaker than that.

Amino acid sequences for entries named in this document (tags omitted). A change or cut given only in a name is not applied to a line headed by its entry.
UniProt Q01638: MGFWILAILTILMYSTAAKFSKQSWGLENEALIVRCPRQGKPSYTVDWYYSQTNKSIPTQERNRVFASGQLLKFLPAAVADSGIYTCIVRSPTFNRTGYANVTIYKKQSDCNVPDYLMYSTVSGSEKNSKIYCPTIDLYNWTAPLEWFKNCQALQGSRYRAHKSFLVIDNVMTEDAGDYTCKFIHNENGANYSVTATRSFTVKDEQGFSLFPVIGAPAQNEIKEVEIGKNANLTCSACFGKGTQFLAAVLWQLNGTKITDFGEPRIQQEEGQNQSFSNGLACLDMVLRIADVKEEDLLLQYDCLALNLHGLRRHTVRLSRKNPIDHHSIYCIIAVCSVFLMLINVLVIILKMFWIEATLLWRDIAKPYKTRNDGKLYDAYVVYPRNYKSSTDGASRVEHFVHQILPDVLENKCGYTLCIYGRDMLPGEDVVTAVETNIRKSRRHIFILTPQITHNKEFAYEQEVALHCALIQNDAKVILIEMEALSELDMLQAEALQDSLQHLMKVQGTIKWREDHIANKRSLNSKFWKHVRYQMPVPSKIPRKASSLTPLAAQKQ

The compounds below were run against Interleukin-1 receptor-like 1 (Homo sapiens) (UniProt Q01638) (assay: blocks human ST2 binding to IL-33, primary screen, biochemical, AlphaLISA (AID 1259354)). Settings: AlphaLISA ST2-Fc/biotin-IL-33 interaction, 1 h; at 17 µM, active compounds read high.
CC(C)c1cc(C2CCN(Cc3cnc[nH]3)CC2)[nH]n1 was tested, and the inhibition was “inactive”.
For O=C(NC1CC1)[C@H]1C[C@@H](O)[C@H](O)[C@@H]2N=C(Nc3cccc4ccccc34)S[C@@H]21, the inhibition was inconclusive: 16%.
With O=C(Cn1c(=O)c2sccc2n(Cc2ccccc2F)c1=O)NCc1ccco1 the inhibition was inconclusive: 16%.
With COc1cccc(N(C(C)=O)C2=C(NC3CCCCC3)C(=O)c3ccccc3C2=O)c1 the inhibition was active: 38%.
For O=c1[nH]c(=O)c2nc3c(ccc4nsnc43)nc2[nH]1, the inhibition was “inactive”.
For COc1ccc(NC(=O)c2cccc(CN3C[C@@H](C)O[C@@H](C)C3)c2)cc1, the inhibition was inconclusive: 16%.
For CSc1cccc(NC(=O)CN(c2ccccc2F)S(C)(=O)=O)c1, the inhibition was “inactive”.
In the case of Cc1cc(N2CCCCC2)nc(N2CCN(S(=O)(=O)c3ccc(-c4ccccc4)cc3)CC2)n1, the inhibition was inconclusive: 10%.
For Cc1cccc(C(=O)N2CCC(N3CCCC(C(=O)N4CCOCC4)C3)CC2)n1 (stereo not drawn), the inhibition was inconclusive: 11%.
CCCc1cc(C(=O)NCC2Cc3cc(-c4ccnc(SC)n4)cc(Cl)c3O2)no1 (stereo not drawn) was tested, and the inhibition was inconclusive: 14%.
With Oc1ccc(Br)cc1C=NCc1ccccc1 the inhibition was inconclusive: 15%.
O=[N+]([O-])c1ccc(C2CSc3c4ncnc-4ncn32)cc1 (stereo not drawn) was tested, and the inhibition was “inactive”.
For COc1cccc(Oc2nc3c(c(=O)n(C)c(=O)n3C)n2Cc2ccc(Cl)cc2)c1, the inhibition was inconclusive: 13%.
In the case of CCOc1ccccc1NC(=O)COc1ccc(Br)cc1C, the inhibition was “inactive”.
With Cc1ccc2c(c1)N(C(C)C(=O)NC1CC1)C(=O)CO2 (stereo not drawn) the inhibition was “inactive”.
In the case of Cc1cccc(NC(c2ccncc2)c2ccc3cccnc3c2O)n1 (stereo not drawn), the inhibition was inconclusive: 27%.
For COCCN1C(=O)N(C2Cc3ccccc3C2)C(=O)C12CCN(Cc1ccc3nsnc3c1)CC2, the inhibition was inconclusive: 17%.
With COc1ccc(N2CCN(c3ncnc4c3cnn4-c3ccc(Cl)cc3)CC2)cc1 the inhibition was inconclusive: 13%.
Cc1[nH]c(=O)[nH]c(=O)c1S(=O)(=O)N1CCCC(C)C1 (stereo not drawn) was tested, and the inhibition was “inactive”.
In the case of Cc1ccc(C(=O)Nc2ccc(C)cc2NC(=O)c2ccc(C)cc2)cc1, the inhibition was inconclusive: 20%.
In the case of O=C1CCCN1CCC(=O)N1CCOC(c2ccc(Cl)c(Cl)c2)C1 (stereo not drawn), the inhibition was “inactive”.
For O=C(c1cccs1)N1N=C(c2ccccc2)CC1c1ccccc1Cl (stereo not drawn), the inhibition was inconclusive: 14%.
With Cc1ccn2c(NC(=O)C(C)C)c(-c3ccc(F)cc3)nc2c1 the inhibition was “inactive”.
For COC1=C(OC)C(=O)C(C2COc3c(cc(OC)c(OC)c3OC)C2)=CC1=O (stereo not drawn), the inhibition was inconclusive: 13%.
COc1cccc(F)c1-c1cnc(-n2cnnc2)c(C)c1 was tested, and the inhibition was inconclusive: 12%.
For N=C(N)c1ccc(OCCCCCOc2ccc(C(=N)N)cc2)cc1 (tested in a mixture with another compound), the inhibition was inconclusive: 10%.
With Cc1ccc(-n2cc(C(=O)NCC(=O)O)c3ccccc3c2=O)cc1C the inhibition was “inactive”.
CSc1ccccc1NC(=O)CCCn1nc([N+](=O)[O-])c(Cl)c1C was tested, and the inhibition was “inactive”.
For CCc1ncc(-c2nccn2Cc2ccccc2-n2cccn2)cn1, the inhibition was inconclusive: 16%.
For COc1ccc(C(=O)n2c(=O)oc3cc([N+](=O)[O-])ccc32)cc1, the inhibition was “inactive”.
CC(C)c1noc(C(C)NC2CCN(C(=O)c3ccccc3)CC2)n1 (stereo not drawn) was tested, and the inhibition was “inactive”.
For Cc1ccc(Nc2cc(C)nc(Nc3ccc(NC(=O)c4ccc(Br)cc4)cc3)n2)cc1, the inhibition was “inactive”.
COc1ccccc1-c1ccnc(N[C@H]2CO[C@H]3[C@@H]2OC[C@@H]3NC(=O)CCC(=O)O)n1 was tested, and the inhibition was inconclusive: 17%.
With COc1cc(NC(=O)c2noc3c2CCCC3)cc(OC)c1OC the inhibition was inconclusive: 11%.
With O=C(COc1ccc(Cl)cc1Cl)N1CCCCC1 the inhibition was “inactive”.
With COc1ccc(OC)c(N=Cc2c(C)c(Cl)c(C)c([N+](=O)[O-])c2O)c1 the inhibition was inconclusive: 16%.
In the case of Cc1[nH]c(C)c(S(=O)(=O)NCCc2ccc(S(N)(=O)=O)cc2)c1C(=O)N1CCCC1, the inhibition was inconclusive: 11%.
For Cn1c(=O)c2c(nc(N3CCOCC3)n2Cc2ccccc2Cl)n(C)c1=O, the inhibition was inconclusive: 22%.
For COc1ccc(OC)c(NC(=O)c2cc3cc4ccc(OC)cc4nc3s2)c1, the inhibition was inconclusive: 23%.
For c1ccc2c(c1)Oc1ccccc1C2n1nnc2ccccc21, the inhibition was “inactive”.
With CCOC(=O)c1cnc2c(C)c(Cl)ccc2c1Nc1cccc(O)c1 the inhibition was inconclusive: 17%.
Cc1cccc2nc(-c3ccco3)c(Nc3ccc4c(c3)OCCO4)n12 was tested, and the inhibition was inconclusive: 17%.
In the case of COc1cc(C)nc(-c2ccccc2OCc2nc(CC3CC3)no2)n1, the inhibition was inconclusive: 19%.
O=c1c2ccccc2ncn1CCOCCOc1ccc(Cl)c(Cl)c1 was tested, and the inhibition was “inactive”.
With O=C(Nc1ccc(F)cc1)C1CC(=O)N(Cc2ccc3c(c2)OCO3)C(=Nc2ccccc2)S1 (stereo not drawn) the inhibition was inconclusive: 22%.
In the case of CCOc1ncccc1CNC(=O)C(C)(C)NC(=O)c1cccs1, the inhibition was inconclusive: 19%.
With Cn1c(=O)c2c(nc(Oc3cc(Cl)ccc3Cl)n2C)n(C)c1=O the inhibition was inconclusive: 20%.
With CC(C)(C)c1ccc(-c2cc(C[C@H]3CNCC[C@H]3CC(=O)Nc3ccccc3)no2)cc1 the inhibition was inconclusive: 10%.
For COc1cc(/C=c2\sc3nc(-c4cccnc4)nn3c2=O)ccc1OCc1ccccc1, the inhibition was “inactive”.
Cc1noc([C@@H]2C[C@H](NC(=O)c3ccco3)CN2C)n1 was tested, and the inhibition was “inactive”.
O=C(Nc1nc(-c2ccccn2)cs1)c1ccc(C(=O)c2ccccc2)cc1 was tested, and the inhibition was “inactive”.
With CCC1=C(c2ccc(OC)cc2)S(=O)(=O)N(CC(=O)Nc2cc(OC)ccc2OC)C1=O the inhibition was inconclusive: 18%.
In the case of CCCNC(=O)c1ccc(Cn2c(=O)c3cc(OC)c(OC)cc3n(CC(N)=O)c2=O)cc1, the inhibition was “inactive”.
O=C(Cc1ccc([N+](=O)[O-])cc1)Nc1ccc(Nc2ccccc2)cc1 was tested, and the inhibition was inconclusive: 21%.
With CC(C)Nc1ccc(-c2cc(N)nc3[nH]ccc23)nn1 the inhibition was “inactive”.
With COc1ccc(N=Cc2[nH]c3ccc(Br)c(Cl)c3c2O)cc1 the inhibition was inconclusive: 19%.
For CN1CCN(C)C2(CCN(C(=O)c3ccc4cccnc4c3O)CC2)C1, the inhibition was inconclusive: 15%.
In the case of COc1cc(-c2nc3nc[nH]n3c2Nc2ccc(C)cc2)ccc1O, the inhibition was inconclusive: 15%.
With Cc1nc2ccc(Br)cc2[nH]1 the inhibition was “inactive”.
With CC(C)C(C(=O)Nc1ccccc1[N+](=O)[O-])N1C(=O)c2ccccc2C1=O (stereo not drawn) the inhibition was inconclusive: 25%.
With COc1cccc(-c2nnc(NC(=O)c3ccc(S(=O)(=O)N4CCC(C)CC4)cc3)o2)c1 the inhibition was inconclusive: 15%.
With COc1ccccc1CCN1CCC(CN(C)C(=O)Cc2cccc(F)c2)CC1 the inhibition was inconclusive: 21%.
In the case of CCOC(=O)c1c(NC(=O)c2noc3c2CCCCC3)sc2c1CCCC2, the inhibition was inconclusive: 10%.
In the case of COc1ccc(NC(=O)C(C)(C)Oc2ccc(Cl)cc2)cc1OC, the inhibition was “inactive”.
For CN1CCN([C@H]2CN(Cc3ccc(Sc4nncn4C)o3)C[C@@H]2O)CC1, the inhibition was inconclusive: 12%.
In the case of CCCc1nc(CNC(=O)Cc2cc(C)no2)cs1, the inhibition was inconclusive: 20%.
For CCn1ncc(C(=O)N2CC[C@@]3(O)CCCC[C@H]3C2)c1C, the inhibition was inconclusive: 12%.
For c1cn2c3c(n1)CCCc3c1cc(C3CCCCC3)ccc12, the inhibition was inconclusive: 25%.
With O=C(NC1CC(=O)N(c2ccc(F)cc2)C1)c1ccco1 (stereo not drawn) the inhibition was inconclusive: 10%.
O=C1C(c2c(O)n(-c3cc(Cl)cc(Cl)c3)[nH]c2=O)=Nc2ccccc21 was tested, and the inhibition was inconclusive: 13%.
For Clc1ccc(-c2cn3ccccc3n2)cc1, the inhibition was “inactive”.
With COc1ccc(Nc2nc3ccc(OC)cc3s2)cc1 the inhibition was inconclusive: 15%.
With COC(=O)C1C(=O)C2=C(CC1C)NC(C)=C(C(=O)OC1CCCCC1)C2c1cccc(F)c1 (stereo not drawn) the inhibition was “inactive”.
In the case of CC(O)c1ccc(C(C)O)cc1 (stereo not drawn), the inhibition was inconclusive: 18%.
In the case of Cc1ccc(O)c(N=Cc2cccc([N+](=O)[O-])c2O)c1, the inhibition was “inactive”.
With Cc1ccc2c(c1)/C(=c1/sc3nc4ccccc4n3c1=O)C(=O)N2 the inhibition was inconclusive: 17%.
In the case of COc1cccc2cc(C(=O)Nc3ccccc3C)c(=N)oc12, the inhibition was inconclusive: 11%.
O=C1CC(N2CCN(c3ccc(F)cc3)CC2)C(=O)N1c1ccc(F)cc1 (stereo not drawn) was tested, and the inhibition was inconclusive: 14%.
In the case of Cc1ccccc1Cn1cc(SCC(=O)N2CCCC2)c2ccccc21, the inhibition was inconclusive: 10%.
In the case of CCN/C(C)=C/c1nsc(Nc2ccc(Cl)cc2)n1, the inhibition was “inactive”.
O=c1cc(-c2ccccc2)sc2c1ccc1ccccc12 was tested, and the inhibition was inconclusive: 29%.
C=CCNC(=O)N[C@H]1[C@H](O)[C@@H](Oc2ccccc2)[C@@H]2OC[C@H]1O2 was tested, and the inhibition was inconclusive: 15%.
In the case of CCC(=O)N1c2ccccc2-c2nnc(SC)nc2OC1c1ccccn1 (stereo not drawn), the inhibition was inconclusive: 13%.
For CCOc1cc(CN2CCN(c3ccccc3OCC)CC2)ccc1OC, the inhibition was inconclusive: 23%.
With CCn1cc(CNc2nc(-c3ccc(Cl)cc3)nc3c2CNC3)cn1 the inhibition was “inactive”.
In the case of CCc1nnc2sc(-c3ccc([N+](=O)[O-])cc3)nn12, the inhibition was inconclusive: 21%.
CCSc1nc2c(c(=O)[nH]1)C(c1ccccc1OC)C1=C(CC(C)(C)CC1=O)N2 (stereo not drawn) was tested, and the inhibition was “inactive”.
O=C(C[C@@H]1O[C@H](CNC(=O)Nc2ccccc2)[C@@H](O)[C@H]1O)NC1CC1 was tested, and the inhibition was inconclusive: 13%.
In the case of CCC(OC)C(=O)NCc1ccc2[nH]c(-c3ccccc3F)c(C)c2c1 (stereo not drawn), the inhibition was “inactive”.
With COc1ccc(OC)c(CN2CCN(c3ccccc3OC)CC2)c1 the inhibition was inconclusive: 15%.
For O=[N+]([O-])c1ccc(N2CCC(c3ccccc3)CC2)c(S(=O)(=O)N2CCOCC2)c1, the inhibition was “inactive”.
For O=[N+]([O-])c1ccc(C2SCCN2S(=O)(=O)c2ccccc2)cc1 (stereo not drawn), the inhibition was inconclusive: 20%.
CCOc1cc(CN2CCN(c3ccc([N+](=O)[O-])cc3)CC2)ccc1OC was tested, and the inhibition was inconclusive: 14%.
